PubChem BioAssay AID1224830, NIAID, 2016
In all, the deposit lists about 18,000 reagents; below is a part drawn at random. Over the whole deposit, about 2,900 (16%) were called active. 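Calls are made per well; low scores hint the gene aids the LPS response, high scores that it dampens it.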 Unmarked entries are inactive. Repeated entries: four replicate wells of each siRNA pool.

- Test: 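Genes whose knock-down alters the TNF-alpha reporter response to LPS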 (primary screen)
- System: human THP-1 monocytic leukaemia cells, TNF dual-luciferase reporter clone, PMA-differentiated to macrophage-like cells
- Reagents: siRNA pool against human genes, 50 nM
- Timing: LPS for 4 h, given about 3 days after siRNA transfection
- Conditions: bacterial LPS (TLR4 ligand), 10 ng/ml
- Read-out: 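Ratio of firefly to renilla light, scaled to the plate median and expressed as a robust z-score per replicate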
- Scale: TNF reporter robust z-score: higher = stronger TNF reporter response to LPS
- Call rule: 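a well is active when its z-score exceeds 2.8 or falls below -1.5; control wells carry no call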

gene | TNF reporter robust z-score
B4GALT1 | -0.83
B4GALT1 | 1.07
B4GALT1 | 0.52
B4GALT1 | 0.86
LIN28B | -1.01
LIN28B | -0.18
LIN28B | -0.75
LIN28B | -0.49
KCTD10 | -0.13
KCTD10 | -0.56
KCTD10 | -0.2
KCTD10 | 0.96
NEURL2 | -0.72
NEURL2 | -0.43
NEURL2 | -0.67
NEURL2 | -1.96 (active)
TMC3 | -1.23
TMC3 | -1.37
TMC3 | -1.32
TMC3 | -0.34
PPP1R10 | -2.17 (active)
PPP1R10 | -2.09 (active)
PPP1R10 | -2.24 (active)
PPP1R10 | -1.95 (active)
TAF6 | 0.33
TAF6 | -0.1
TAF6 | 0.13
TAF6 | -0.12
GLRX3 | -1.44
GLRX3 | -1.21
GLRX3 | -0.93
GLRX3 | -0.03
UBQLNL | 0.67
UBQLNL | 0.28
UBQLNL | 0.29
UBQLNL | 0.34
FYB1 | 0.7
FYB1 | 0.09
FYB1 | -0.01
FYB1 | -0.61
DEFB1 | 0.26
DEFB1 | 1.01
DEFB1 | 0.06
DEFB1 | 1.3
LPA | -0.49
LPA | 0.97
LPA | -0.71
LPA | 1.42
IL5 | 3.2 (active)
IL5 | 1.67
IL5 | 2
IL5 | 3.02 (active)
RBCK1 | 0.16
RBCK1 | -0.4
RBCK1 | 0.94
RBCK1 | 1.97
ZNF774 | 2.81 (active)
ZNF774 | 0.56
ZNF774 | 0.27
ZNF774 | 1.66
FBXO16 | -0.57
FBXO16 | -1.58 (active)
FBXO16 | 3.69 (active)
FBXO16 | 0.92
NPHP4 | 0.02
NPHP4 | 0.19
NPHP4 | 0.16
NPHP4 | -0.96
MPZL3 | 1.92
MPZL3 | 1.95
MPZL3 | -0.19
MPZL3 | 0.18
REXO1 | 0.8
REXO1 | 0.97
REXO1 | 0.05
REXO1 | 0.64
ASAH2B | 0.51
ASAH2B | 0.44
ASAH2B | 0.82
ASAH2B | 0.28
ITGA8 | -0.53
ITGA8 | 0.05
ITGA8 | 0.55
ITGA8 | -1.21
HSPB1 | 1.33
HSPB1 | 2.58
HSPB1 | 1.6
HSPB1 | 2.02
IFNA17 | -0.01
IFNA17 | -0.33
IFNA17 | -0.88
IFNA17 | -0.36
PLSCR3 | -0.96
PLSCR3 | -0.84
PLSCR3 | -0.24
PLSCR3 | -0.25
KLHDC8A | -1.17
KLHDC8A | -1.23
KLHDC8A | -1.12
KLHDC8A | -1.2
H2AC17 | -0.54
H2AC17 | 0.08
H2AC17 | 0.17
H2AC17 | 0.38
RPS6KA6 | -0.07
RPS6KA6 | 0
RPS6KA6 | 0.37
RPS6KA6 | 0.99
ZSCAN32 | -1.25
ZSCAN32 | -0.49
ZSCAN32 | -0.95
ZSCAN32 | -0.7

Copied from the listing (14 entries):
gene | TNF reporter robust z-score
HSPB1 | 2.58
HSPB1 | 1.6
HSPB1 | 2.02
IFNA17 | -0.01
IFNA17 | -0.33
IFNA17 | -0.88
IFNA17 | -0.36
PLSCR3 | -0.96
PLSCR3 | -0.84
PLSCR3 | -0.24
PLSCR3 | -0.25
KLHDC8A | -1.17
KLHDC8A | -1.23
KLHDC8A | -1.12
